Some of the results follow. Further columns of the screen follow, without active or inactive calls. The list favours compounds with an active or inconclusive main result. The note in brackets gives the kind of curve behind each potency; many fits are weak.

This experiment in a line: qHTS Assay for Modulators of Lamin A Splicing. To be noted: HeLa LMNA splicing GFP/RFP minigene ratio, 48 h. The essentials:
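S3 HeLa stable clones carrying a lamin A-EGFP splicing minigene plus DsRed2 were seeded at 600 cells/well in Opti-MEM with 2% FBS, pin-dosed and incubated 48 h at 37°C. Acumen cytometry (488 nm) gave the GFP/RFP total-intensity ratio.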
Background: qHTS replaces the single test concentration by a dilution series.

The mark [1] stands for this setting: measured here: GFP splicing reporter channel.
The mark [2] stands for this setting: measured here: RFP viability control channel.

Take `CN1CCN(CCOc2ccc(Cl)c(Cl)c2)CC1`: the AC50 – broadly, the concentration giving half of the maximal activity seen – under setting [1] is 5.01 µM [rising, partial curve]. As to `CCOc1ccccc1CNC(=O)c1ccc(Sc2ccc(Cl)cc2)c(NC(C)=O)c1`, the half-maximal activity concentration (AC50) under setting [1] is 0.158 µM [rising, full curve, poor fit] and the AC50 under setting [2] is 22.4 µM [rising, single point]. With `COc1cccc(-n2c(=O)c3c(C)c(C(=O)N(C)C)sc3n(CC(=O)NCCc3ccc(OC)c(OC)c3)c2=O)c1`, the AC50 under setting [2] is 1.26 µM [falling, partial curve].

With `O=C(NC1CC2CCCC(C1)N2Cc1ccccc1)C1CCCCC1` (stereo not given), the half-maximal activity concentration (AC50) under setting [2] was 2.51 µM [falling, partial curve, poor fit]. Consider `CC1CCCN(Cc2c(O)ccc3c(=O)c(-c4nc5ccccc5s4)c(N)oc23)C1` (stereo not given), for which the AC50 under setting [1] was 35.5 µM [falling, single point]. On to `O=C(/C=C/c1ccc2c(c1)OCO2)N1CCN(c2ccccc2F)CC1`, for which the AC50 is, setting by setting: under setting [1], 17.8 µM [rising, partial curve, poor fit]; under setting [2], 15.8 µM [rising, single point].

With `O=C1c2ccccc2C2=Nc3ccccc3SC(c3ccc(Cl)cc3)C12` (stereo not given), the half-maximal activity concentration (AC50) reads like this: under setting [1], 12.6 µM [rising, partial curve, poor fit]; under setting [2], 14.1 µM [rising, partial curve]. For `Cc1cc(-c2nnc(CCC(=O)NCc3ccc(F)c(F)c3)o2)no1`, the AC50 is, setting by setting: under setting [1], 5.01 µM [falling, single point]; under setting [2], 35.5 µM [falling, single point].

Take `OCc1ccc(-c2nn(Cc3ccccc3)c3ccccc23)o1`: the half-maximal activity concentration (AC50) reads like this: under setting [1], 10 µM [falling, partial curve]; under setting [2], 11.2 µM [falling, partial curve]. In the case of `COc1ccc(Cc2nnc(NC(=O)c3cccc([N+](=O)[O-])c3)s2)cc1`, the AC50 under setting [2] was 0.562 µM [rising, full curve, poor fit].

`Cn1c(=O)cc(OCCCC(=O)N2CCCCC2)c2ccccc21`: under setting [2], the AC50 was 1 µM [rising, partial curve].

Take `CC(C)C(C)NC(=O)COC(=O)c1cccc(C(=O)OCC(=O)NC(C)C(C)C)n1` (stereo not given): under setting [1], the AC50 was 4.47 µM [falling, full curve]. As to `CSCC[C@H](NC(=O)C1CCN(S(=O)(=O)c2ccc(C)cc2)CC1)C(=O)NC1CCS(=O)(=O)C1` (stereo not given in full), under setting [2], the half-maximal activity concentration (AC50) was 0.316 µM [falling, full curve, poor fit]. As to `O=C(N/N=C/c1cc([N+](=O)[O-])ccc1O)c1cc(-c2ccccc2)nc2ccccc12`, the half-maximal activity concentration (AC50) under setting [2] is 10 µM [rising, partial curve]. Take `CC(=O)NC(=S)Nc1cc(C(F)(F)F)ccc1N1CCOCC1`: the AC50 under setting [2] was 14.1 µM [rising, single point]. For `COc1ccccc1-n1cc(CN2CCCC(CO)(Cc3cccc(Cl)c3)C2)cn1` (stereo not given), under setting [1], the concentration at half-maximal activity (AC50) is 0.891 µM [falling, full curve, poor fit].

In the case of `N#Cc1ccsc1NC(=O)CN1CCN(S(=O)(=O)c2ccc3ccccc3c2)CC1`, the half-maximal activity concentration (AC50) runs as follows: under setting [1], 25.1 µM [rising, single point]; under setting [2], 1.26 µM [rising, partial curve]. Take `O=S(=O)(Nc1ccc(S(=O)(=O)Nc2nccs2)cc1)c1ccc2c(c1)OCCO2`: the AC50 under setting [2] is 15.8 µM [rising, single point].

As to `COc1ccc([N+](=O)[O-])cc1NC(=O)Cc1ccc(C)cc1`, under setting [2], the AC50 is 8.91 µM [rising, partial curve, poor fit]. For the molecule `Cc1ccc(N=C2NC(=O)C(CC(=O)NCc3ccccc3)S2)cc1C` (stereo not given), the concentration at half-maximal activity (AC50) is, setting by setting: under setting [1], 15.8 µM [rising, partial curve, poor fit]; under setting [2], 0.224 µM [rising, full curve, poor fit]. For the molecule `CCc1cccc(CC)c1-n1c(SCC(=O)N2CCc3ccccc3C2)nnc1-c1cccnc1`, under setting [1], the half-maximal activity concentration (AC50) was 31.6 µM [rising, single point]. Consider `O=C(c1ccco1)N1CCN(C(=O)c2cc3sccc3n2Cc2ccccc2)CC1`, for which the AC50 under setting [2] is 14.1 µM [rising, partial curve].

Turning to `CN(C)S(=O)(=O)NCCNc1ccc(C(F)(F)F)cc1[N+](=O)[O-]`, the AC50 runs as follows: under setting [1], 4.47 µM [falling, partial curve]; under setting [2], 5.62 µM [falling, partial curve]. Regarding `O=C1Nc2c(Br)cc(Br)cc2C1(O)N1CCOCC1` (stereo not given), the half-maximal activity concentration (AC50) was 28.2 µM [falling, single point] under setting [1] and 25.1 µM [falling, single point] under setting [2]. Turning to `COc1cccc(N2C(=O)CC(c3c[nH]c4ccccc34)C2=O)c1` (stereo not given), the AC50 is 4.47 µM [rising, partial curve] under setting [1] and 5.62 µM [rising, single point] under setting [2]. As for `O=C(Cc1ccc(-n2cccc2)cc1)NC1CCCCCC1`, under setting [2], the AC50 is 11.2 µM [rising, partial curve].

`CC12CCCCN1CCCc1c2[nH]c2ccccc12` (stereo not given): the AC50 was 0.794 µM [rising, full curve, poor fit] under setting [1] and 0.251 µM [falling, full curve, poor fit] under setting [2]. Take `COC(=O)c1ccc(C2c3c(oc4ccc(F)cc4c3=O)C(=O)N2CCO)cc1` (stereo not given): the half-maximal activity concentration (AC50) under setting [2] was 25.1 µM [rising, single point]. On to `O=C(NC1=NCCS1)c1sc2cc(Cl)cc(Cl)c2c1Cl`, for which the AC50 under setting [2] is 0.0141 µM [rising, full curve, poor fit].

Consider `CCOC(=O)c1c(NC(=O)C2=C(C)NC(=S)NC2c2ccc(F)cc2F)sc(C)c1C` (stereo not given), for which, under setting [2], the AC50 was 15.8 µM [rising, single point]. As for `Cc1cccc(NC(=O)CSc2nc3ccc(NC(=O)c4ccco4)cc3s2)c1`, under setting [1], the half-maximal activity concentration (AC50) was 35.5 µM [falling, partial curve, poor fit]. Regarding `CCN(CC)c1ccc(C(=O)OCC(=O)Nc2ccccc2-c2ccccc2)cc1`, the concentration at half-maximal activity (AC50) under setting [1] was 14.1 µM [rising, partial curve] and the concentration at half-maximal activity (AC50) under setting [2] was 17.8 µM [rising, partial curve]. As to `COC(CNC(=O)c1ccc(N2CCc3ccccc32)c([N+](=O)[O-])c1)OC`, under setting [2], the AC50 was 15.8 µM [rising, single point]. On to `CCc1ccc(NC(=O)CSc2nc3n[nH]c(C)c3c(=N)n2-c2ccccc2C)cc1`, for which the AC50 runs as follows: under setting [1], 35.5 µM [falling, single point]; under setting [2], 31.6 µM [falling, single point]. For `Cc1ccc(NS(=O)(=O)c2cc(OCC(N)=O)c(C)cc2Cl)cc1C`, the AC50 under setting [2] was 14.1 µM [rising, single point]. In the case of `COc1ccc(/C=N/NC(=O)c2cc(C(C)(C)C)[nH]n2)cc1COc1ccc(F)cc1F`, under setting [2], the half-maximal activity concentration (AC50) is 7.94 µM [rising, partial curve]. In the case of `CC1CCc2cc(F)ccc2N1S(=O)(=O)c1ccc(Cl)nc1` (stereo not given), the AC50 under setting [1] was 7.08 µM [falling, partial curve, poor fit]. Still for that read-out and setting: for `Cc1ccc(NC(=O)COC(=O)/C=C/c2ccccc2)cc1S(=O)(=O)N1CCOCC1` the value was 3.98 µM [falling, partial curve, poor fit]. Consider `N#Cc1c(NC(=O)c2cc3nc(-c4ccc(Br)cc4)cc(C(F)(F)F)n3n2)sc2c1CCCC2`, for which the AC50 under setting [2] was 6.31 µM [falling, partial curve]. For `CC(C)(C)OC(=O)NCCc1nnc(S(=O)(=O)Cc2ccc(Cl)cc2Cl)o1`, the AC50 under setting [1] was 15.8 µM [falling, single point].

Consider `C=CCCCCCCCCC(=O)OC`, for which the AC50 under setting [2] was 1.26 µM [falling, single point]. `COCCn1c(=O)[nH]c2cc(C(=O)NCCN3CCN(c4ccccc4)CC3)ccc2c1=O`: the AC50 is, setting by setting: under setting [1], 12.6 µM [rising, single point]; under setting [2], 15.8 µM [rising, single point]. For `CC(C)n1nnnc1-c1cccc(Cl)c1`, under setting [1], the AC50 was 12.6 µM [rising, single point]. Consider `Fc1ccc(CNc2ccc(CNc3ncn[nH]3)cc2)cc1`, for which the half-maximal activity concentration (AC50) under setting [1] was 14.1 µM [rising, partial curve] and the half-maximal activity concentration (AC50) under setting [2] is 28.2 µM [rising, single point]. In the case of `O=C(CSc1nc2ccc([N+](=O)[O-])cc2[nH]1)NC1CCCCCC1`, the half-maximal activity concentration (AC50) under setting [2] was 35.5 µM [rising, single point]. In the case of `CN(C)c1ccnc2sc(C(=O)c3ccccc3)c(N)c12`, the AC50 is 8.91 µM [rising, partial curve, poor fit] under setting [1] and 11.2 µM [rising, partial curve, poor fit] under setting [2].

As to `COc1cc(C)c2c(=O)cc(-c3ccccc3)oc2c1`, the AC50 under setting [1] is 22.4 µM [rising, single point].

For the molecule `Cc1ccc(C(=O)Nc2nc3ccccc3s2)s1`, the AC50 under setting [2] was 11.2 µM [rising, single point].

Consider `Clc1ccc(C(c2nnnn2C2CCCC2)N2CCSCC2)cc1` (stereo not given), for which, under setting [1], the AC50 was 35.5 µM [rising, single point]. As for `CCCCN1CCCc2cc(CN(CCCN3CCOCC3)C(=O)Nc3ccc(OCC)cc3)ccc21`, the AC50 is, setting by setting: under setting [1], 0.0224 µM [rising, full curve, poor fit]; under setting [2], 6.31 µM [rising, full curve, poor fit]. Regarding `Cn1c(N=Nc2ccccc2)nc2ccccc21`, the half-maximal activity concentration (AC50) runs as follows: under setting [1], 25.1 µM [rising, single point]; under setting [2], 12.6 µM [rising, partial curve, poor fit]. Take `CCc1ccc(C(=O)c2cnc3ccc(OC)cc3c2N2CCN(CC)CC2)cc1`: the AC50 is 14.1 µM [falling, partial curve] under setting [1] and 0.708 µM [falling, partial curve, poor fit] under setting [2]. As for `O=C1C=CCC(/C=C/c2ccccc2)O1` (stereo not given), under setting [2], the AC50 was 3.55 µM [rising, single point]. With `OC(COCC(F)(F)C(F)(F)C(F)(F)C(F)F)Cn1c2ccccc2c2ccccc21` (stereo not given), the AC50 reads like this: under setting [1], 35.5 µM [falling, single point]; under setting [2], 5.62 µM [rising, single point]. On to `O=C(Nc1cccc2ccccc12)OCc1cncs1`, for which the concentration at half-maximal activity (AC50) under setting [2] was 0.00355 µM [falling, full curve, poor fit].

These data come from PubChem BioAssay AID1487 (National Center for Advancing Translational Sciences (NCATS), 2009).
